Results on 37 compounds are retold here after PubChem BioAssay AID2685 (National Center for Advancing Translational Sciences (NCATS), 2010).

Each structure is given as a SMILES string. Some of the results follow. Shown are side measurements of this screen, not its main read-out; they come without a call. Compounds called inactive in the main read-out are mostly missing here. Words in brackets tell the shape of the fitted curve; partial curves, single points and poor fits give uncertain potencies.

A short description of the assay: qHTS Assay for Lipid Storage Modulators in Drosophila S3 Cells.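 For cell number change: cells counted by Cell Tracker Red CMTPX staining in the red channel.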 Conditions: BODIPY lipid droplet fluorescence, 18-24 h; for cell number change: measured here: cell count max response, cells fed with added oleic acid. A digest of the protocol: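 Drosophila S3 cells loaded with oleic acid (400 uM, as added) and compounds at several concentrations; lipid droplets imaged by 488-nm laser-scanning cytometry, 500–530 nm intensity and object ratio to cell channel. Percent activity normalized to 20 uM Triacsin C.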
(In qHTS, concentration-response curves come from the screen itself.)

[1] abbreviates: measured here: lipid fluorescence (Fed channel) AC50, cells fed with added oleic acid.
[2] abbreviates: measured here: cell number channel AC50, cells fed with added oleic acid.

With `Cc1ccc(C)c(S(=O)(=O)N2CCN(C(=O)CN3C(=O)C4CC=CCC4C3=O)CC2)c1` (stereo not given), the AC50 under setting [1] was 11.6 µM [rising, single point].

Turning to `NNC(=O)c1ccc(CN2C(=O)c3cccc4cccc2c34)cc1`, the cell number change came to 55.3%. Also, the AC50 under setting [1] was 10.3 µM [rising, partial curve].

Turning to `Cc1nc(CNS(=O)(=O)c2ccc3ccccc3c2)cs1`, the cell number change came out at 50.6%. Moreover, the AC50 under setting [2] is 29.1 µM [rising, single point]. Moreover, the AC50 under setting [1] is 11.6 µM [rising, partial curve].

As to `Cc1ccc2nc(Cl)c(/C=N/Nc3nc(C)cc(C)n3)c(=O)n2c1`, the cell number change is -3.29%. Moreover, the AC50 under setting [1] is 25.9 µM [falling, single point].

As for `Cc1ccc(NC(=O)c2ccco2)c(NC(=O)c2ccccc2C)c1`, the cell number change is -1.39%. Further, under setting [1], the AC50 is 29.1 µM [rising, partial curve, poor fit].

On to `Cc1ccc(/C=C/c2nc3ccccc3s2)s1`, for which the cell number change is -0.516%.

On to `O=[N+]([O-])c1cccc(-n2nnnc2CN2CCCC2)c1`, for which the cell number change came to 15%. Under setting [1], the AC50 was 2.91 µM [rising, full curve, poor fit].

On to `COCCNC(=O)COC(=O)c1ccc(OCC(=O)Nc2ccccc2OC)c(OC)c1`, for which the cell number change was -152%. Besides, the AC50 under setting [2] is 29.1 µM [falling, single point]. The AC50 under setting [1] was 29.1 µM [falling, single point].

`COC(=O)c1cc(NC(=O)CN2C(=O)C(=O)N(C3CCCC3)C2=O)cc(C(=O)OC)c1`: the cell number change is -2.33%. Further, the AC50 under setting [1] was 20.6 µM [falling, single point].

Consider `CCOC(=O)c1cc(NC(=O)c2ccc(Cl)cc2)c(=O)n2c1oc1ccc(Cl)cc12`, for which the cell number change was -36.6%.

`COCCOC(=O)c1c(C)oc2ccc(NS(=O)(=O)c3ccc(C(=O)O)cc3)cc12`: the cell number change was -10.1%.

Regarding `CC(NC(=O)CN(C)Cc1cccc(F)c1)c1ccccc1` (stereo not given), the cell number change was 48.6%. In addition, under setting [2], the AC50 was 25.9 µM [rising, single point]. The AC50 under setting [1] is 0.58 µM [falling, single point].

As to `Cc1ccccc1N1CCN(C2=NC(=O)/C(=C\c3cccs3)S2)CC1`, the cell number change stood at 49.3%. Further, the AC50 under setting [2] is 3.26 µM [rising, partial curve].

Turning to `Cc1ccccc1C(=O)NNC(=O)C1CC(=O)N(c2ccc3c(c2)OCCO3)C1` (stereo not given), the cell number change was found to be 14.1%. Besides, the AC50 under setting [1] is 23.1 µM [rising, partial curve, poor fit].

With `CC(C)c1ccccc1NC(=O)C1CCCN(C(=O)c2ccc(Cl)cc2)C1` (stereo not given), the cell number change is -19.7%.

Regarding `COC(=O)c1cc(Br)ccc1NC(=O)Nc1ccccc1`, the cell number change is 8.81%. The AC50 under setting [1] was 5.17 µM [rising, full curve, poor fit].

As to `CC1N/C(=C\C(=O)c2ccccc2)N(O)C1(C)C` (stereo not given), the cell number change was -15%. Moreover, the concentration at half-maximal activity (AC50) under setting [1] is 1.16 µM [falling, single point].

For the compound `Cc1occc1C(=O)Nc1cc(S(=O)(=O)N2CCOCC2)ccc1OC(C)C`, the cell number change is 3.48%. Besides, the AC50 under setting [1] is 29.1 µM [rising, single point].

Consider `CNc1ccc(C(=O)N2CCN(S(=O)(=O)c3ccc4c(c3)OCCCO4)CC2)cc1[N+](=O)[O-]`, for which the cell number change is -16.3%. For the same compound, the AC50 under setting [2] is 0.184 µM [rising, partial curve, poor fit]. For the same compound, the AC50 under setting [1] is 29.1 µM [falling, single point].

`CC(C(=O)Nc1ccc(F)cc1Cl)N(C)CCOc1ccccc1` (stereo not given): the cell number change was 9.72%. Moreover, under setting [1], the AC50 is 29.1 µM [falling, single point].

Turning to `Cc1ccc(NS(=O)(=O)c2ccc(-c3csc(C)n3)s2)c(C)c1`, the cell number change turned out to be 37.6%. The AC50 under setting [2] is 6.51 µM [rising, full curve]. In addition, under setting [1], the AC50 was 0.517 µM [rising, full curve].

For `CCN1C(=NCc2ccc(OC)cc2)N[C@@H](c2ccccc2)C(C(=O)OC)=C1C`, the cell number change is 21.3%. For the same compound, under setting [1], the AC50 is 32.6 µM [rising, partial curve, poor fit].

In the case of `O=S(=O)(c1ccc(F)cc1)n1ccc(-c2cccc(OCc3ccc(Cl)cc3Cl)c2)n1`, the cell number change came out at 58.3%. In addition, the AC50 under setting [2] was 18.4 µM [rising, partial curve].

For the compound `COc1cc(OC)c(-n2cc(-c3ccc(Cl)cc3)[nH]c2=O)cc1Cl`, the cell number change was found to be 4.03%. Under setting [1], the AC50 is 23.1 µM [rising, single point].

For `CN1CCN(c2ccc(NC(=O)c3ccco3)cc2Cl)CC1`, the cell number change was 36.4%.

Regarding `CCN(CC(=O)Nc1ccc(NC(C)=O)cc1)C(=O)Cc1ccc(S(=O)(=O)N2CCOCC2)s1`, the cell number change was -2.56%. The AC50 under setting [1] is 2.91 µM [rising, single point].

With `O=S(=O)(c1ccccc1F)N1CCN(CC(O)c2ccccc2)CC1` (stereo not given), the cell number change was 60%. Moreover, under setting [1], the AC50 is 29.1 µM [rising, partial curve, poor fit].

`O=C(C1CC1)N(CCN(Cc1ccccc1)C(=O)C1CC1)Cc1ccccc1`: the cell number change was -10.1%. Under setting [1], the AC50 is 0.116 µM [rising, full curve, poor fit].

As for `Cc1ccc(N2C(=O)CC(Nc3ccccc3)C2=O)cc1` (stereo not given), the cell number change was -41.1%. The AC50 under setting [2] is 3.66 µM [falling, full curve]. For the same compound, the AC50 under setting [1] was 29.1 µM [falling, single point].

Take `CCN(CC)C(=O)C1=C(C)NC(=O)NC1c1c(F)cccc1Cl` (stereo not given): the cell number change is -43.5%. For the same compound, the AC50 under setting [2] is 2.31 µM [falling, full curve]. Also, the AC50 under setting [1] was 4.11 µM [falling, full curve].

On to `Cc1ccc(OCC(=O)Nc2nnc(-c3ccco3)s2)cc1`, for which the cell number change turned out to be 13.9%. For the same compound, under setting [1], the AC50 is 23.1 µM [rising, partial curve, poor fit].

Take `CNS(=O)(=O)c1ccc(C(=O)NCC(=O)NCC2COc3ccccc3O2)cc1` (stereo not given): the cell number change is -3.23%. Also, the AC50 under setting [1] is 18.4 µM [rising, single point].

As to `Cc1cc(C(=O)NCCCN2CCOCC2)n(-c2ccccc2)n1`, the cell number change is -33.2%. Besides, under setting [2], the AC50 was 8.2 µM [falling, single point]. In addition, under setting [1], the AC50 was 23.1 µM [falling, partial curve].

For `CCN(c1ccccc1)S(=O)(=O)c1ccc(Cl)c(NC(=O)CSc2nncs2)c1`, the cell number change was -18%.

Turning to `CC(=O)Nc1ccc(Nc2ccc3c4c(cc(=O)n3C)-c3ccccc3C(=O)c24)cc1`, the cell number change was 41.9%. Moreover, the AC50 under setting [2] is 18.4 µM [rising, single point].

For `COC(=O)CC1C(=O)NCCN1C(=O)c1cc([N+](=O)[O-])ccc1Cl` (stereo not given), the cell number change was -0.794%. The AC50 under setting [1] was 3.66 µM [falling, single point].

`O=C(CCC(=O)NC1CCN(Cc2ccccc2)CC1)NCc1ccco1`: the cell number change was -0.0246%. The AC50 under setting [1] was 0.82 µM [falling, full curve].

As usually defined, the AC50 is the concentration at which the activity in the assay is half-maximal.
